According to patent publication US20080306040A1 (priority 2005, published 2008):

Test: general procedure: solution-phase peptide synthesis; EDC/HOBt; PyBOP/diisopropylethylamine
Conditions: late stage modification step

Row | Substance | step yield (tetrahydrochloride) | other results
1 | tert-Butyl {3-[(8S,11S,14S)-14-[(tert-butoxycarbonyl)amino]-17-hydroxy-8-(2-{[2-hydroxy-3-(L-ornithylamino)propyl]amino}-2-oxoethyl)-10,13-dioxo-9,12-diazatricyclo[14.3.1.1^2,6]henicosa-1(20), 2(21),3,5,16,18-hexaen-11-yl]propyl}carbamate | – | step yield (hydrochloride): 99% of theory
2 | N^2-{[(8S,11S,14S)-14-Amino-11-(3-aminopropyl)-17-hydroxy-10,13-dioxo-9,12-diazatricyclo[14.3.1.1^2,6]henicosa-1(20), 2(21),3,5,5,16,18-hexaen-8-yl]acetyl}-N-(2-aminoethyl)-L-ornithinamide tetrahydrochloride | 93% of theory | –
3 | (3S)-3-Amino-6-[(N^2-{[(8S,11S,14S)-14-amino-11-(3-aminopropyl)-17-hydroxy-10,13-dioxo-9,12-diazatricyclo[14.3.1.1^2,6]henicosa-1(20), 2(21), 3,5,16,18-hexaen-8-yl]acetyl}-L-ornithyl)amino]-N-[(2S)-2,5-diaminopentyl]hexanamide hexahydrochloride | – | step yield (hexahydrochloride): 99% of theory
4 | N^2-{[(8S,11S,14S)-14-Amino-11-(3-aminopropyl)-17-hydroxy-10,13-dioxo-9,12-diazatricyclo[14.3.1.1^2,6]henicosa-1(20),2(21), 3,5,16,18-hexaen-8-yl]acetyl}-N-[(5S)-5-amino-6-hydroxyhexyl]-L-ornithinamide tetrahydrochloride | 97% of theory | –
5 | N-[3-({[(8S 11S, 14S)-14-Amino-11-(3-aminopropyl)-17-hydroxy-10,13-dioxo-9,12-diazatricyclo[14.3.1.1^2,6]henicosa-1(20), 2(21), 3,5,16,18-hexaen-8-yl]acetyl}amino)-2-hydroxypropyl]-L-ornithinamide tetrahydrochloride | 73% of theory | –
6 | 3-Amino-N^2-{[(8S,11S,14S)-14-amino-11-(3-aminopropyl)-17-hydroxy-10,13-dioxo-9,12-diazatricyclo[14.3.1.1^2,6]henicosa-1(20),2(21),3,5,16,18-hexaen-8-yl]acetyl}-N-(2,5-diaminopentyl)-L-alaninamide tetrahydrochloride | 99% of theory | –
7 | N^3-{[(8S,11S,14S)-14-Amino-11-(3-aminopropyl)-17-hydroxy-10,13-dioxo-9,12-diazatricyclo[14.3.1.1^2,6]henicosa-1(20),2(21), 3,5,16,18-hexaen-8-yl]acetyl}-N-[(2S)-2,5-diaminopentyl]-beta-alaninamide tetrahydrochloride | 99% of theory | –
